This note sets out measurements from EP4821941A1, “BRAIN-TARGETING PEPTIDE, TRANSPORT CARRIER, AND METHOD FOR SCREENING PEPTIDE BINDING TO TARGET CELL” (dated 2026).

One assay concerns Cortical neurons. Briefly: In vivo panning of a phage display peptide library in mice, next-generation sequencing read counts (cortical neurons). The conditions noted are these: after third round of in vivo panning; phage library 1×10^11 cfu via tail vein; cells collected by laser capture microdissection.
The next assay has as its system Whole cerebrum. The experiment in a line: In vivo panning of a phage display peptide library in mice, next-generation sequencing read counts (whole cerebrum). The following applies: after third round of in vivo panning; phage library 1×10^11 cfu via tail vein; tissues collected five minutes after administration.

The structures given here were assigned with low confidence; some may be wrong.

As for `C[C@H](NC(=O)[C@H](CCCNC(=N)N)NC(=O)[C@H](CC(=O)O)NC(=O)[C@@H](N)[C@@H](C)O)C(=O)N1CCC[C@H]1C(=O)N[C@@H](Cc1c[nH]cn1)C(=O)N[C@@H](CCCNC(=N)N)C(=O)O`, the “Number of reads Cortical neurons” value in the assay on Cortical neurons is given as 104. In the assay with Whole cerebrum, the “Number of reads Whole cerebrum” value was determined as 19.
